# In PubChem BioAssay AID2685 (National Center for Advancing Translational Sciences (NCATS), 2010):
# The list shows a part of the results. The main result of the screen is listed elsewhere. These columns were measured beside it and carry no call. Compounds called inactive in the main read-out are mostly missing here. Words in brackets tell the shape of the fitted curve; partial curves, single points and poor fits give uncertain potencies.
# Experiment: qHTS Assay for Lipid Storage Modulators in Drosophila S3 Cells;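 for cell number change: cells counted by Cell Tracker Red CMTPX staining in the red channel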
# Conditions: BODIPY lipid droplet fluorescence, 18-24 h; for cell number change: measured here: cell count max response, cells fed with added oleic acid
# Summary of the method: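 Drosophila S3 cells got compounds at several concentrations plus oleic acid (400 uM solution). Laser-scanning cytometry with 488 nm excitation read lipid droplets at 500-530 nm and cells at 575-640 nm. Percent activity was relative to 20 uM Triacsin C.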
# [1] = measured here: cell number channel AC50, cells fed with added oleic acid
# [2] = measured here: lipid fluorescence (Fed channel) AC50, cells fed with added oleic acid
SMILES,cell number change [%],AC50 [1],AC50 [2]
CCOc1ccc(CCNC(=O)C(CC)n2nc(C)n3c(cc4sccc43)c2=O)cc1OCC (centres undefined),-97.6,"580 nM [rising, partial curve]","10300 nM [falling, partial curve]"
COc1ccc(NC(=O)C(OC(=O)c2cnccn2)c2ccccc2)cc1Cl (centres undefined),-4.4,–,"29100 nM [rising, single point]"
CN(CC(=O)NCCc1ccc(F)cc1)CC(=O)Nc1ccc(F)c(F)c1F,25,"231 nM [rising, full curve, poor fit]",–
O=C(O)CCc1nnc(SCC(=O)Nc2cccc(C(F)(F)F)c2)[nH]c1=O,–,"5.17 nM [rising, full curve, poor fit]","4.61 nM [rising, full curve, poor fit]"
CC1CCc2c(sc3nc(CSc4n[nH]c(N)n4)[nH]c(=O)c23)C1 (centres undefined),-27.8,–,"2910 nM [rising, single point]"
CCSc1nnc(NC(=O)CSC2=NN3CCCC(=O)N=C3S2)s1,3.81,–,"231 nM [falling, full curve, poor fit]"
Cc1nnc(SCC(=O)Nc2nsc(-c3ccccc3)n2)s1,3.78,–,"5800 nM [rising, full curve, poor fit]"
O=c1oc2cc([N+](=O)[O-])ccc2nc1/C=C(\O)c1cccc(Br)c1,-24.3,–,"1030 nM [falling, full curve, poor fit]"
COc1cc(NC(=O)c2ccc3snnc3c2)cc(OC)c1,5.29,"82 nM [rising, full curve, poor fit]","326 nM [rising, full curve, poor fit]"
COc1ccc(-c2noc(-c3cc4ccccc4oc3=O)n2)cc1,11.8,–,–
O=C1C(=O)N(CCCc2ccccc2)c2ccccc21,-11.6,–,–
COc1ccc(NC(=O)C(NS(=O)(=O)c2ccc3c(c2)CCCN3C(C)=O)C(C)C)c(OC)c1 (centres undefined),-31.7,"5170 nM [falling, partial curve]","29100 nM [falling, single point]"
CC(=O)N1CCN(c2ccc(NC(=O)c3ccc4ccccc4c3)cc2)CC1,23.1,–,"1840 nM [falling, full curve]"
Cc1ccc(C)n1-c1ccc(C(=O)NN=C2CCCC2)cc1,–,–,"116 nM [falling, single point]"
c1ccc(CN=C2NN=C(c3cc4ccccc4o3)CS2)cc1,-3.91,–,"1300 nM [rising, partial curve]"
Cc1nc(-c2ccc(Cl)cc2)sc1C1(C)CC(c2ccc(F)cc2)=NO1 (centres undefined),21.6,–,"29100 nM [rising, single point]"
CC(C)(C)c1ccc(Cn2nnc3c(=O)[nH]c(C4CCN(C(=O)Cc5cccs5)CC4)nc32)cc1,-53.7,"32600 nM [falling, single point]","32600 nM [falling, single point]"

# Of the compounds above, these have an NH in an aromatic ring.
SMILES,cell number change [%],AC50 [1],AC50 [2]
O=C(O)CCc1nnc(SCC(=O)Nc2cccc(C(F)(F)F)c2)[nH]c1=O,–,"5.17 nM [rising, full curve, poor fit]","4.61 nM [rising, full curve, poor fit]"
CC1CCc2c(sc3nc(CSc4n[nH]c(N)n4)[nH]c(=O)c23)C1 (centres undefined),-27.8,–,"2910 nM [rising, single point]"
CC(C)(C)c1ccc(Cn2nnc3c(=O)[nH]c(C4CCN(C(=O)Cc5cccs5)CC4)nc32)cc1,-53.7,"32600 nM [falling, single point]","32600 nM [falling, single point]"

# (listing goes on)

SMILES,cell number change [%],AC50 [1],AC50 [2]
CC(C)OC(=O)CCC/C=C\C[C@@H]1[C@@H](CC[C@@H](O)CCc2ccccc2)[C@H](O)C[C@@H]1O,-28.3,–,"18400 nM [falling, single point]"
O=S(=O)(NC1CC1)c1ccc(F)c(F)c1,–,–,"25900 nM [falling, single point]"
O=C(CSc1nnc(Nc2ccccc2)s1)Nc1ccc(S(=O)(=O)N2CCOCC2)cc1,23.4,–,"29100 nM [rising, single point]"
Cn1ccsc1=NC(=O)c1ccc(S(C)(=O)=O)cc1,18.7,–,"29100 nM [rising, single point]"
Cc1ccc2cc(CN(Cc3ccccc3)Cc3nnnn3C3CCCC3)c(=O)[nH]c2c1,21.8,"6510 nM [rising, single point]","116 nM [falling, full curve, poor fit]"
CN1CCN(S(=O)(=O)c2cccc(C(=O)Nc3sccc3C(N)=O)c2)CC1,-36,"2310 nM [falling, full curve, poor fit]","231 nM [falling, full curve]"
N/C(=N\OC(=O)Nc1cccc(C(F)(F)F)c1)c1ccno1,-3.74,"3660 nM [rising, single point]",–
CN(Cc1ccccc1)C(=O)c1nc[nH]c1C(=O)N1CCc2ccccc2C1,21.2,"103 nM [rising, full curve, poor fit]","103 nM [rising, single point]"
Cc1ccc(C)c2nc3sc(C(=O)O)cc3cc12,14.8,–,"411 nM [rising, partial curve, poor fit]"
CCN(CC(=O)NCc1ccc(Cl)cc1)C(=O)CN1C(=O)NC(C)(c2ccccc2)C1=O (centres undefined),11,–,"103 nM [falling, full curve, poor fit]"
COc1ccccc1CNC(=O)c1ccc(CS(=O)Cc2cccc(Cl)c2)o1 (centres undefined),32.5,"10300 nM [rising, partial curve, poor fit]","326 nM [rising, full curve, poor fit]"
O=C(COC(=O)/C=C/c1ccc(Cl)cc1)Nc1ccccc1-c1ccccc1,41.3,"10300 nM [rising, partial curve]","16400 nM [rising, single point]"
COc1cccc(Nc2nnc(SCc3nc4ccccc4s3)s2)c1,-14.3,"7310 nM [falling, single point]","3660 nM [rising, full curve]"
O=C(c1ccc(OC2CCN(Cc3ccc(F)cc3)CC2)cc1)N1CCCC1,14.4,–,"116 nM [rising, partial curve, poor fit]"
O=C(Cc1ccc(Cl)cc1)NNc1c(F)c(F)cc(F)c1F,7.21,–,"18400 nM [rising, single point]"
CCN(CC(=O)NC1CCS(=O)(=O)C1)S(=O)(=O)c1ccc2ccccc2c1 (centres undefined),12.6,–,"13000 nM [rising, single point]"
CC(=O)Nc1cccc(-c2csc(Nc3ccc(Cl)cn3)n2)c1,-27.4,"517 nM [falling, single point]",–
